Earlier results, collected in article PMC12406664, “New derivatives of 6-nitrocoumarin-3-thiosemicarbazone exhibit improved antiparasitic activity in the placenta against Trypanosoma cruzi and Toxoplasma gondii” (Antimicrobial Agents and Chemotherapy, 2025).

Test system: T. cruzi
Parameters: method as in ref 28 (b), 32, 33 (c, d)
Conditions: Fig. 2 literature compounds, ref 28 (b), 32, 33 (c, d); cited from earlier work

## NC(=S)N/N=C/c1ccc([N+](=O)[O-])o1 [b]
  SI = EC50 (mammalian cell model) / IC50 (parasite): 3.2
